Assay [1] addresses T1, Msh4-TurboID (S. cerevisiae) (UniProt P40965).
T1 sequence: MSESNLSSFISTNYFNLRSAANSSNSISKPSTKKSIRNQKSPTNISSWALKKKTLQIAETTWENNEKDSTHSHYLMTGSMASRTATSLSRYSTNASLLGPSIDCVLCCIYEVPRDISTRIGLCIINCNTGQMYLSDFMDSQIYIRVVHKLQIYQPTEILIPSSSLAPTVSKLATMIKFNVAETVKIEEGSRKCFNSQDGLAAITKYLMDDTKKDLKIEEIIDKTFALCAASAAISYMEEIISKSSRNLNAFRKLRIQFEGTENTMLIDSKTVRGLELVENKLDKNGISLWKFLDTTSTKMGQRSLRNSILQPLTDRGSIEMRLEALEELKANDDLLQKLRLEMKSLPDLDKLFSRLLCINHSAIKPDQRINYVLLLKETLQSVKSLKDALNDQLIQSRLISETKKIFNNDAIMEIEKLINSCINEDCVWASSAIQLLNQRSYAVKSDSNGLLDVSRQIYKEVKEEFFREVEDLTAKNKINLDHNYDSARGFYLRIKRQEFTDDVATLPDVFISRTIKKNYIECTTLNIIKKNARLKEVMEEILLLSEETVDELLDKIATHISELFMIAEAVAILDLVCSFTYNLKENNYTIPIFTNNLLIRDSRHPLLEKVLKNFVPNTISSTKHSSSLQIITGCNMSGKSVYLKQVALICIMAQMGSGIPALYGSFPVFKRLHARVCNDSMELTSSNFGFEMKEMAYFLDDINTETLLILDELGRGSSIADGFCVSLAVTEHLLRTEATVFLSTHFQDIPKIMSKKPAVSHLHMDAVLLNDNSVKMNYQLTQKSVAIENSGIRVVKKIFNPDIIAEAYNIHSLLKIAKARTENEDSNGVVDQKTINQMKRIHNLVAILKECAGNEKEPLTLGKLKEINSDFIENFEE
As to the kind of experiment: proximity labelling; eleven TurboID fusion strains (ndt80, homozygous) and a no-TurboID control, ~24 h sporulation, two replicates; TCA extract, streptavidin-sepharose pull-down, trypsin, UPLC-MS/MS; targets = in both replicates and in neither control.

Sequences of proteins named here, by UniProt entry; tags and fusion partners are left off. A change or cut given only in a name is not applied to a line headed by its entry.
UniProt P51979: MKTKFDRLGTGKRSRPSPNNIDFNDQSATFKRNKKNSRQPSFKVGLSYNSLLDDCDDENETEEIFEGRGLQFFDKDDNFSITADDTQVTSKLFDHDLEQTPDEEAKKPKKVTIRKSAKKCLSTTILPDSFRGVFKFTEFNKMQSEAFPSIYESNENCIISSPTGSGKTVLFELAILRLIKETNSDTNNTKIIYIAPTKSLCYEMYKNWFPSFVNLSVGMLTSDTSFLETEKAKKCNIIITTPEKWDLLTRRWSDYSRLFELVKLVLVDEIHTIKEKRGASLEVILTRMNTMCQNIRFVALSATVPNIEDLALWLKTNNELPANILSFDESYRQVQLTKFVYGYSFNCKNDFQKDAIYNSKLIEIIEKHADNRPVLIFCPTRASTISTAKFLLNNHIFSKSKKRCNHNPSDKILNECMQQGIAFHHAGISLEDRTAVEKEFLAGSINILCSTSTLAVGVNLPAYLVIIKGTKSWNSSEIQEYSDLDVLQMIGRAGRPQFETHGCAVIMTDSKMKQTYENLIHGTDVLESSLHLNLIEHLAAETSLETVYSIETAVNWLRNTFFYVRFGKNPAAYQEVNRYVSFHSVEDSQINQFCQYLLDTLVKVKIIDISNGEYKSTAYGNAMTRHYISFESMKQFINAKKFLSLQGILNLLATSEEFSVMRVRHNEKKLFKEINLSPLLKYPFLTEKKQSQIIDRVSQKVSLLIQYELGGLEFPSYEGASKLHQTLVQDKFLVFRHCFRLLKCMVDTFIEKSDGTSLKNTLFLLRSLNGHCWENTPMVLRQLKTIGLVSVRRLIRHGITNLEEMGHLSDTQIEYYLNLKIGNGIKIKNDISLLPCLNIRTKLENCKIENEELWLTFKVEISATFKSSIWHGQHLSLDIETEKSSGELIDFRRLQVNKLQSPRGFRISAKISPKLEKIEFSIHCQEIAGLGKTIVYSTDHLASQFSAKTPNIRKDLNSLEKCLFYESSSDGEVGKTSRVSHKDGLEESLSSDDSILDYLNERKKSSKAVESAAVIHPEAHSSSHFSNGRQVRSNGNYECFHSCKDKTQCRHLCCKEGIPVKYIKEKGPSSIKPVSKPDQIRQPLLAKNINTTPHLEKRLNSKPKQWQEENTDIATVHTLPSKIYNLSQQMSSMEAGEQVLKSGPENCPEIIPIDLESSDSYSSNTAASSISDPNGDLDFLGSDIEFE
UniProt Q12306: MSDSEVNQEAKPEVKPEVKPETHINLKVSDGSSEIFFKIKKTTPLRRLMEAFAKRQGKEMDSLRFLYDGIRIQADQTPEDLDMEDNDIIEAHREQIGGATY

Assay [2] addresses T2, Msh5-TurboID (S. cerevisiae) (UniProt Q12175).
T2 sequence: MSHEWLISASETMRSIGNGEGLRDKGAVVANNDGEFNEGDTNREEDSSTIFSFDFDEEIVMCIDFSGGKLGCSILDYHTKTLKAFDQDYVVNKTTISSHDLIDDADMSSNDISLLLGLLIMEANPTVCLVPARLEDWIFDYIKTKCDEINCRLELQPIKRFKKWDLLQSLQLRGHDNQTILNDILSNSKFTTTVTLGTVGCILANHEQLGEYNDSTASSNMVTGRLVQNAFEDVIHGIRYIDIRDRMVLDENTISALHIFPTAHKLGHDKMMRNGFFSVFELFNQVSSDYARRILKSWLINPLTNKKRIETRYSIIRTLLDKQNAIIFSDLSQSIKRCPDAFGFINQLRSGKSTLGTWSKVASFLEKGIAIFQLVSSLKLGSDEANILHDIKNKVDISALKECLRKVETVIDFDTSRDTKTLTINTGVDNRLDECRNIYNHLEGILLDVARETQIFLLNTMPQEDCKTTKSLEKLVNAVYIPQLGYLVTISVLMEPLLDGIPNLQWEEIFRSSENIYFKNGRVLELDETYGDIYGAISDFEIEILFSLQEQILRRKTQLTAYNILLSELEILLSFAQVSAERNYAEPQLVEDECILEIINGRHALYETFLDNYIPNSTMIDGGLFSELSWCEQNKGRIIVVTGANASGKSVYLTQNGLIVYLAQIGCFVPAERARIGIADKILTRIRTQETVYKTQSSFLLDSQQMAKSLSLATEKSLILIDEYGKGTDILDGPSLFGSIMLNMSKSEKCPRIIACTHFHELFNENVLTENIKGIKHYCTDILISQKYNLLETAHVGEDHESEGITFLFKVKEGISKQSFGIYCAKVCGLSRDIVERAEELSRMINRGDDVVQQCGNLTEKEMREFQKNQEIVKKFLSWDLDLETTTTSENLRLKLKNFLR
The description is as above.

Assay [3] deals with T3, Ecm11-TurboID (S. cerevisiae) (UniProt Q04110).
T3 sequence: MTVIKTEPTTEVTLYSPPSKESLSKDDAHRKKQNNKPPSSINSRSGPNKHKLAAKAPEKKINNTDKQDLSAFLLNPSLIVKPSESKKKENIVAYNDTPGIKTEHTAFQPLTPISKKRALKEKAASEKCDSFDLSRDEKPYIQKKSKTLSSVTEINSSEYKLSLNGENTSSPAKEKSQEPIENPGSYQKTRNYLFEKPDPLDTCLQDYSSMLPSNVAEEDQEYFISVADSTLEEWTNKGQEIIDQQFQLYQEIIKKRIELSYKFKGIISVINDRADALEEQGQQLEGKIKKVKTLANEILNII
Described as above.

The target of assay [4] is T1, Msh4-TurboID (S. cerevisiae). As to the kind of experiment: proximity labelling; TurboID fusion allele (homozygous, or heterozygous where said) in ndt80 diploid cells, 24 h in sporulation medium, endogenous biotin; TCA extract, 8% or 12% SDS-PAGE, streptavidin:HRP blot; also done in mutant backgrounds in which the labelling was kept.
The target of assay [5] is T4, Zip2-TurboID (S. cerevisiae) (UniProt P53061).
T4 sequence: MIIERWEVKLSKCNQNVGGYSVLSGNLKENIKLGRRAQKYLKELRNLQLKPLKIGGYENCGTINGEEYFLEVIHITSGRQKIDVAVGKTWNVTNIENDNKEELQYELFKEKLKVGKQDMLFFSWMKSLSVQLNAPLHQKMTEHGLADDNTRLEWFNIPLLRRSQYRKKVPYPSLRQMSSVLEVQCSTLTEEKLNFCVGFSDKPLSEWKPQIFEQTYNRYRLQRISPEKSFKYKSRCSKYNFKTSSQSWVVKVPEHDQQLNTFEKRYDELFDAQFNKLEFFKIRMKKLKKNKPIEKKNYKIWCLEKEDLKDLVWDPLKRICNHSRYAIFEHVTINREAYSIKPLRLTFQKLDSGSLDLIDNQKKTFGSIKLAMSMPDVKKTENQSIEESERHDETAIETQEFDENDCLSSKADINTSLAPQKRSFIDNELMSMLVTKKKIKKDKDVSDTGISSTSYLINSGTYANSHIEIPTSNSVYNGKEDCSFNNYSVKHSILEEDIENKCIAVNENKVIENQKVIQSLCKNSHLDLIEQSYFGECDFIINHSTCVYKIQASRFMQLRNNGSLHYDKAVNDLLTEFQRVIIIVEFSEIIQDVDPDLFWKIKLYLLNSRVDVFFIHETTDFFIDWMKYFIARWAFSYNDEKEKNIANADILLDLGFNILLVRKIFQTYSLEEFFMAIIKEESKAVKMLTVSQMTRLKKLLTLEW
The assay is described as above.

In assay [6] the target is T5, Ecm11-TurboID (S. cerevisiae), Q04110.
T5 chain: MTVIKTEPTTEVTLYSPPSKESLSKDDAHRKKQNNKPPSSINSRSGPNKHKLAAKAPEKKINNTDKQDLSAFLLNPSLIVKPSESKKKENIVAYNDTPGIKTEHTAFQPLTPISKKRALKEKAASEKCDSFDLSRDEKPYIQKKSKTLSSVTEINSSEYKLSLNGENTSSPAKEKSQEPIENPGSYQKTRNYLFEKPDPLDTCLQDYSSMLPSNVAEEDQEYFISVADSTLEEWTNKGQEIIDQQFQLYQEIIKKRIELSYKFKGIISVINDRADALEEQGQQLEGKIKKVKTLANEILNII
As to the kind of experiment: proximity labelling; eleven TurboID fusion strains (ndt80, homozygous) and a no-TurboID control, ~24 h sporulation, two replicates; TCA extract, streptavidin-sepharose pull-down, trypsin, UPLC-MS/MS; targets = in both replicates and in neither control. The settings on record: remark: other sources report otherwise.

These are yes or no findings as the source states them, for the method shown. Binding seen in cells or lysates may run through a third protein. Here binding means that the protein was enriched with, or labelled near, the bait; the list need not be complete.

As for Mer3 (from UniProt P51979 1-1187), the binding entry in assay [1] and in assay [2] was “binds” in each case.

For “SUMO protein (encoded by the SMT3 gene) (from UniProt Q12306)”, in assay [3], the binding entry is on record as “binds”.

B1: Ecm11[K5R, K101R] (protein, UniProt Q04110 1-302)
chain: MTVIRTEPTTEVTLYSPPSKESLSKDDAHRKKQNNKPPSSINSRSGPNKHKLAAKAPEKKINNTDKQDLSAFLLNPSLIVKPSESKKKENIVAYNDTPGIRTEHTAFQPLTPISKKRALKEKAASEKCDSFDLSRDEKPYIQKKSKTLSSVTEINSSEYKLSLNGENTSSPAKEKSQEPIENPGSYQKTRNYLFEKPDPLDTCLQDYSSMLPSNVAEEDQEYFISVADSTLEEWTNKGQEIIDQQFQLYQEIIKKRIELSYKFKGIISVINDRADALEEQGQQLEGKIKKVKTLANEILNII
For B1, the binding result in assay [4] and in assay [5] was “binds” each time.

B2: Zip1, P31111 1-875 (protein)
chain: MSNFFRDSSMGFKPRPNIFAKLRVRDVDSDSSANTVVENSSNCLDVGSSIEGDDTFKKPHKTSTEQELITSMSLSQRNHGYSDDMEIGSPKKTTSTDQYNRILKNDVAAIENDTDEDFEITEVREVSEGVAKETKESHGDPNDSETTLKDSKMHEYTMTNGKAPLHTSINNSSTSSNDVLLEAFTNTQRICSNLKQELQKQQQDNAKLKVRLQSYASNSDKINEKVGKYKSCLETLQERIATLTSHKNNQETKLKDLRQNHQLYQRRISGFKTSIENLNKTINDLGKNKKEADAELMKKGKEIEYLKRELDDCSGQLSEEKIKNSSLIQEMGKNREEMIKSIENFFSEDKAHHLLQFNKFEERVHDLFEKKLQKHFDVAKDTLNVGLRNTTVELSSNTETMLKQQYEDIKENLEQKMSSSKDEMAKTINELSVTQKGLIMGVQEELLTSSGNIQTALVSEMNNTRQELLDDASQTAKNYASLENLVKAYKAEIVQSNEYEERIKHLESERSTLSSQKNQIISSLGTKEAQYEDLVKKLEAKNIEISQISGKEQSLTEKNENLSNELKKVQDQLEKLNNLNITTKSNYENKISSQNEIVKALVSENDTLKQRIQQLVEIKENEQKDHTTKLEAFQKNNEQLQKLNVEVVQLKAHELELEEQNRHLKNCLEKKETGVEESLSDVKTLKQQVIVLKSEKQDITAEKLELQDNLESLEEVTKNLQQKVQSQKRELEQKIKELEEIKNHKRNEPSKKGTQNFTKPSDSPKKNATTSNLFPNNSAAIHSPMKKCPKVDHISKSRINSSKETSKFNDEFDLSSSSNDDLELTNPSPIQIKPVRGKIKKGSNCMKPPISSRKKLLLVEDEDQSLKISKKRRRK
Turning to B2, the binding result in assay [6] is given as “binds”.

Source of the values: article PMC11508090.
